This is an account of results in PMC5974397, “Oligomeric states of microbial rhodopsins determined by high-speed atomic force microscopy and circular dichroic spectroscopy” (Scientific Reports, 2018).

No constants are given. Whether binding was seen depends on the method and setting. Some binding calls cover weakened binding; strength is not graded here.

The target in this test is Gloeobacter rhodopsin (Gloeobacter violaceus PCC 7421) (UniProt Q7NP59). As to the kind of experiment: circular dichroism spectroscopy (visible, exciton coupling of retinals); protein solubilized in DDM; both purified. For orientation: Circular dichroism is the unequal absorption of left and right circularly polarised light.

B1: Gloeobacter rhodopsin (natural protein, Gloeobacter violaceus PCC 7421, UniProt Q7NP59 1-298, looked up)
chain: MLMTVFSSAPELALLGSTFAQVDPSNLSVSDSLTYGQFNLVYNAFSFAIAAMFASALFFFSAQALVGQRYRLALLVSAIVVSIAGYHYFRIFNSWDAAYVLENGVYSLTSEKFNDAYRYVDWLLTVPLLLVETVAVLTLPAKEARPLLIKLTVASVLMIATGYPGEISDDITTRIIWGTVSTIPFAYILYVLWVELSRSLVRQPAAVQTLVRNMRWLLLLSWGVYPIAYLLPMLGVSGTSAAVGVQVGYTIADVLAKPVFGLLVFAIALVKTKADQESSEPHAAIGAAANKSGGSLIS
modifications: retinal chromophore
notes: Gloeobacter rhodopsin (GR), proton pump, from Gloeobacter violaceus PCC 7421; also called GR; rhodopsin from Gloeobacter violaceus PCC 7421; not shown: His6, C-terminal, kept
Consider B1, for which the binding result is reported as “binds”.
